Reference: PubChem BioAssay AID504786 (Drosophila RNAi Screening Center, 2011)

- Purpose: 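Fly genes required for HIF-dependent transcription when hypoxia is mimicked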 (primary screen)
- Cells: Drosophila S2 cells with a stable HIF luciferase reporter
- Reagents: long dsRNA against Drosophila genes, about 0.2 µg dsRNA per well of a 384-well plate
- Time to read-out: three days of knock-down, then 20 h of DFO before reading
- Challenge: desferrioxamine (DFO) at 100 µM, an iron chelator that mimics hypoxia, for 20 h
- Read-out: 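HIF reporter luminescence in cells given 100 µM DFO for 20 h, using the mouse ldh-a hypoxia-response element, scored as per-plate z-scores; higher means greater loss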
- Direction: z-score: higher = stronger loss of HIF reporter signal
In all, the deposit lists about 21,000 reagents; this is an unselected part of those with a known target gene and a result. 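Primary screen; positive scores mean lost reporter signal, so the sign may be inverted from the usual convention.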 A plus sign joins genes that one reagent is predicted to hit. Further read-outs or replicates are left out here.

z-score, replicate 1, by gene and reagent
Pgcl: DRSC18815 -0.4
CG31465: DRSC16090 -0.2
INPP5E: DRSC09723 -0.2
Or35a: DRSC03389 -0.2
MED24: DRSC10944 1.2
CG9825: DRSC04569 -0.2
CG10165: DRSC02017 -0.2
Inx7 + cm: DRSC18753 -0.5
CG13538: DRSC04180 -0.3
CG13137: DRSC02234 -0.2
kar: DRSC14496 -0.2
Atu: DRSC12123 0.3
CG4281: DRSC18521 -0.3
wus: DRSC20278 -0.3
CG32700: DRSC17857 -0.4; DRSC17858 -0.3
CG13615: DRSC14618 -0.5
SCaMC: DRSC10293 -0.1; DRSC10415 -0.2
LpR1: DRSC15665 -0.4; DRSC15669 -0.2; DRSC15670 -0.4
Nckx30C: DRSC02686 -0.1; DRSC02687 -0.1; DRSC02688 0; DRSC02689 0.9
CG2747: DRSC15450 0.1
CG16970 (retired record): DRSC01310 0.1; DRSC02549 -0.3
comt: DRSC20319 -0.4
RIC-3: DRSC04243 -0.3; DRSC04543 -0.1
CG13081: DRSC02185 -0.2
CG16852: DRSC01876 0
CG42537: DRSC12519 -0.3
CG9297: DRSC16469 -0.4
CG10863: DRSC08145 -0.3
CG13361: DRSC17896 -0.4
CG14246: DRSC14741 -0.3
CG14757: DRSC06492 -0.4
Rme-8: DRSC07054 -0.4
CG13096: DRSC02198 0.2
Gr98a: DRSC14719 0.6
Vha14-2: DRSC12145 -0.3
Septin4: DRSC20205 -0.2
unc79: DRSC15746 -0.3
Sf3b6: DRSC09972 4.9
CAH13: DRSC06128 -0.2
DnaJ-H: DRSC03273 -0.4
fan: DRSC10930 -0.3
trsn: DRSC06078 -0.2
Nna1: DRSC19404 -0.3
CG17177: DRSC10257 -0.1
Arl1: DRSC09667 -0.2
Chd3: DRSC11114 -0.2
DCP2: DRSC10597 -0.3
Menl-2 + Menl-1: DRSC07469 -0.3; DRSC07470 0.2
slif: DRSC11635 -0.3
CG2611: DRSC02710 -0.3
Kal1: DRSC15983 0
Rgk3: DRSC04250 -0.2; DRSC04251 -0.3; DRSC04254 -0.2; DRSC04255 -0.2
GlyT: DRSC04512 -0.3
CG7342: DRSC16230 -0.2
RpS8: DRSC16318 5
Sirt2: DRSC15714 0.1
yellow-f2: DRSC16372 -0.2
Vajk1: DRSC01882 -0.2
CG11374: DRSC00306 -0.2
Gat: DRSC17144 -0.3
mRpS23: DRSC01348 0.5
CG12075: DRSC17801 -0.3
Kdsr: DRSC14245 0.2
CG14362: DRSC14824 -0.4
CG13004: DRSC19523 -0.2
Yp3: DRSC20302 -0.2
Cpr65Az: DRSC09882 -0.4
RN-tre: DRSC07521 -0.4
Hrs: DRSC00549 -0.1
Fatp (retired record): DRSC03054 -0.3
